PubChem BioAssay AID1259405, NCATS, 2018
The whole screen tested about 50,000 reagents; this is a part drawn at random. In the full data, about 4,000 (8%) are marked active. 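Mouse siRNA library applied to hamster cells; one well for each siRNA.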 Reagents against one gene are numbered here. No sequences are given here.

Aim: 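Mouse-designed siRNAs used to find CHO productivity engineering targets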 (primary screen)
Cell system: Chinese hamster CHO-K1 ovary cells with stable secreted eGFP expression
Knock-down reagent: single siRNA against mouse genes, 0.8 pmol siRNA per well (2 µl of 400 nM stock)
Timing: 3 days
Measurement: 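Percent of the per-plate non-targeting control median for intracellular GFP per well by laser scanning cytometry and for cell viability by ATP luminescence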
Direction: GFP, % of control: higher = more GFP per well, higher productivity; viability (ATP), % of control: higher = more viable cells (more ATP)
Hit rule: 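Called active when intracellular GFP, relative to negative control, is at or above 120%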

| Target gene | reagent no. | GFP, % of control | viability (ATP), % of control | Call |
| --- | --- | --- | --- | --- |
| 1500015L24Rik | 1 | 88.7 | 76.9 | inactive |
| 1500015L24Rik | 2 | 107 | 75.8 | inactive |
| 1500015L24Rik | 3 | 59 | 71.8 | inactive |
| Ube2s | 1 | 92.2 | 56.5 | inactive |
| Ube2s | 2 | 69.2 | 67.5 | inactive |
| Ube2s | 3 | 48.5 | 93.2 | inactive |
| Fam131b | 1 | 52.7 | 48.7 | inactive |
| Fam131b | 2 | 67.3 | 76.2 | inactive |
| Fam131b | 3 | 118 | 118 | inactive |
| N4bp2l1 | 1 | 58.1 | 38 | inactive |
| N4bp2l1 | 2 | 61.9 | 89.8 | inactive |
| N4bp2l1 | 3 | 52.9 | 52 | inactive |
| Wnk1 | 1 | 74.5 | 73 | inactive |
| Wnk1 | 2 | 167 | 82.2 | active |
| Wnk1 | 3 | 45.2 | 61.4 | inactive |
| Wnk1 | 4 | 91 | 85.6 | inactive |
| Nt5m | 1 | 51.1 | 61.4 | inactive |
| Nt5m | 2 | 93 | 86.2 | inactive |
| Nt5m | 3 | 82.5 | 40.9 | inactive |
| Prpf3 | 1 | 76.2 | 86.9 | inactive |
| Prpf3 | 2 | 91.8 | 95.6 | inactive |
| Gm11507 | 1 | 66.6 | 42.3 | inactive |
| Gm11507 | 2 | 60.9 | 77.2 | inactive |
| Gm11507 | 3 | 144 | 51.2 | active |
| Iqsec1 | 1 | 58.4 | 77.4 | inactive |
| Iqsec1 | 2 | 36.3 | 54.7 | inactive |
| Iqsec1 | 3 | 208 | 72 | active |
| Ebna1bp2 | 1 | 88.7 | 95.1 | inactive |
| Ebna1bp2 | 2 | 100 | 98.3 | inactive |
| Ebna1bp2 | 3 | 123 | 68.1 | active |
| Snrpd2 | 1 | 130 | 47.5 | active |
| Snrpd2 | 2 | 103 | 37.8 | inactive |
| Tnfsf18 | 1 | 69.5 | 61.8 | inactive |
| Tnfsf18 | 2 | 66.5 | 53.7 | inactive |
| Tnfsf18 | 3 | 60.8 | 63.7 | inactive |
| Garre1 | 1 | 92.2 | 60.7 | inactive |
| Garre1 | 2 | 116 | 65.4 | inactive |
| Garre1 | 3 | 88.4 | 100 | inactive |
| Tmem176a | 1 | 92.4 | 130 | inactive |
| Tmem176a | 2 | 101 | 95.2 | inactive |
| Tmem176a | 3 | 192 | 98.8 | active |
| Ifnab | 1 | 70.9 | 62 | inactive |
| Ifnab | 2 | 119 | 56.2 | inactive |
| Ifnab | 3 | 141 | 83.1 | active |
| Phxr1 | 1 | 62 | 39.7 | inactive |
| Phxr1 | 2 | 62.6 | 35.4 | inactive |
| Phxr1 | 3 | 102 | 19.5 | inactive |
| Tppp3 | 1 | 59.9 | 72.1 | inactive |
| Tppp3 | 2 | 49.2 | 73.1 | inactive |
| Tppp3 | 3 | 59.3 | 69.7 | inactive |
| Or8k39 | 1 | 98.8 | 41.3 | inactive |
| Or8k39 | 2 | 77.4 | 63.8 | inactive |
| Or8k39 | 3 | 52.8 | 121 | inactive |
| Fbxo32 | 1 | 71.2 | 57.7 | inactive |
| Fbxo32 | 2 | 58.7 | 59.7 | inactive |
| Fbxo32 | 3 | 125 | 88.6 | active |
| Irgq | 1 | 85.9 | 49.5 | inactive |
| Irgq | 2 | 42.4 | 56.1 | inactive |
| Irgq | 3 | 96.1 | 83.5 | inactive |
| Gjd2 | 1 | 91.8 | 90.6 | inactive |
| Gjd2 | 2 | 92.6 | 88 | inactive |
| Gjd2 | 3 | 77.7 | 125 | inactive |
| Sf3a2 | 1 | 74.9 | 77.8 | inactive |
| Sf3a2 | 2 | 77.8 | 77.7 | inactive |
| Sf3a2 | 3 | 57.5 | 50.5 | inactive |
| Tmem26 | 1 | 121 | 128 | active |
| Tmem26 | 2 | 96.1 | 93 | inactive |
| Tmem26 | 3 | 67 | 105 | inactive |
| Yipf2 | 1 | 80.3 | 79.6 | inactive |
| Yipf2 | 2 | 65.1 | 63.7 | inactive |
| Yipf2 | 3 | 92.9 | 54.6 | inactive |
| Heatr1 | 1 | 67 | 52.7 | inactive |
| Heatr1 | 2 | 25.7 | 37.6 | inactive |
| Heatr1 | 3 | 68.9 | 66 | inactive |
| Klhl22 | 1 | 79.5 | 60.7 | inactive |
| Klhl22 | 2 | 114 | 85.7 | inactive |
| Klhl22 | 3 | 94.2 | 89.1 | inactive |
| Krt42 | 1 | 56.4 | 59.1 | inactive |
| Krt42 | 2 | 70.2 | 80.7 | inactive |
| Krt42 | 3 | 55 | 48.6 | inactive |
| Rchy1 | 1 | 128 | 98.3 | active |
| Rchy1 | 2 | 44.3 | 54 | inactive |
| Rchy1 | 3 | 59.1 | 63.1 | inactive |
| Tonsl | 1 | 116 | 53.4 | inactive |
| Tonsl | 2 | 30.5 | 97.6 | inactive |
| Tonsl | 3 | 109 | 88.6 | inactive |

Entries above with an active call, once more:
| Target gene | reagent no. | GFP, % of control | viability (ATP), % of control | Call |
| --- | --- | --- | --- | --- |
| Wnk1 | 2 | 167 | 82.2 | active |
| Gm11507 | 3 | 144 | 51.2 | active |
| Iqsec1 | 3 | 208 | 72 | active |
| Ebna1bp2 | 3 | 123 | 68.1 | active |
| Snrpd2 | 1 | 130 | 47.5 | active |
| Tmem176a | 3 | 192 | 98.8 | active |
| Ifnab | 3 | 141 | 83.1 | active |
| Fbxo32 | 3 | 125 | 88.6 | active |
| Tmem26 | 1 | 121 | 128 | active |
| Rchy1 | 1 | 128 | 98.3 | active |
